Reference: patent publication US20260215432A1, “ANTIMICROBIAL CONJUGATED OLIGOELECTROLYTES AND METHODS THEREOF” (National University of Singapore, priority 2023, published 2026)

Test system: A549 (lung epithelial cells)
Test: Cytotoxicity against mammalian cell line
Format: cell-based
Details: IC50 (A549) divided by MIC towards MRSA
Procedure: The cytotoxicity of the TPP COEs was also tested against a mammalian cell line (A549).

## C(=C\c1ccc(OCCCC[P+](c2ccccc2)(c2ccccc2)c2ccccc2)cc1)/c1ccc(OCCCC[P+](c2ccccc2)(c2ccccc2)c2ccccc2)cc1.[I-].[I-] [Compound D4P]
  Selectivity Index: 4.0

## C(=C\c1ccc(OCCCCCC[P+](c2ccccc2)(c2ccccc2)c2ccccc2)cc1)/c1ccc(OCCCCCC[P+](c2ccccc2)(c2ccccc2)c2ccccc2)cc1.[I-].[I-] [Compound D6P]
  Selectivity Index: 6.5

## COc1cc(/C=C/c2ccc(OCCCC[P+](c3ccccc3)(c3ccccc3)c3ccccc3)c(OC)c2)ccc1OCCCC[P+](c1ccccc1)(c1ccccc1)c1ccccc1.[I-].[I-] [DM4P]
  Selectivity Index: 4.5

## COc1cc(/C=C/c2ccc(OCCCCCC[P+](c3ccccc3)(c3ccccc3)c3ccccc3)c(OC)c2)ccc1OCCCCCC[P+](c1ccccc1)(c1ccccc1)c1ccccc1.[I-].[I-] [DM6P]
  Selectivity Index: 11

## COc1cc(/C=C/c2ccc(OCCCCCCCC[P+](c3ccccc3)(c3ccccc3)c3ccccc3)c(OC)c2)ccc1OCCCCCCCC[P+](c1ccccc1)(c1ccccc1)c1ccccc1.[I-].[I-] [DM8P]
  Selectivity Index: 2.5
